Reference: patent US5874086A, “Synthesis and use for the treatment of osteoporosis” (Syntex (U.S.A,), Inc., priority 1994, dated 1999)
Not every detail of the peptide structures is certain; ends, links or a residue may be inferred. Where no end group is shown, it is not given here.

System: ovariectomized rats
Experiment: Effect on bone mass (bone calcium) in ovariectomized rats
Assay type: in vivo, Sprague-Dawley female rats
Procedure: Bone Dis. 5:177 181 (1984).
Adult Sprague-Dawley female rats were acclimatized, weight grouped (n=9, 10 or 12), and subjected to bilateral ovariectomy (OVX) or sham surgery. Dosing was initiated 17 days after surgery and continued for 20 days. Test compound was administered subcutaneously once a day in 2% rat serum/saline vehicle.
After 20 days of dosing, the rats were sacrificed and the right femurs excised. The femurs were cut in half and the distal half femurs (DHF) were further separated into trabecular bone (TB) and cortical bone (CB) by drilling out the trabeculae. Calcium was extracted and measured by Calcette calcium analyzer and expressed as mean bone Ca in mg/DHF/100 g body weight.
The two sample t-test was used to compare OVX and sham groups. One-way ANOVA was used to compare OVX groups, followed by Fisher's LSD multiple comparison to compare each treatment group to vehicle.

[1] = 80 μg/kg/day subcutaneously once a day, 20 days of dosing

CC[C@H](C)[C@H](NC(=O)[C@H](CCC(=O)O)NC(=O)[C@H](CO)NC(=O)[C@@H](NC(=O)[C@H](C)N)C(C)C)C(=O)N[C@@H](CCC(N)=O)C(=O)N[C@@H](Cc1ccccc1)C(=O)N[C@@H](CCSC)C(=O)N[C@@H](Cc1c[nH]cn1)C(=O)N[C@@H](CC(N)=O)C(=O)N[C@@H](CC(C)C)C(=O)NCC(=O)N[C@@H](CCCCN)C(=O)N[C@@H](Cc1c[nH]cn1)C(=O)N[C@@H](CC(C)C)C(=O)N[C@@H](CO)C(=O)N[C@@H](CO)C(=O)N[C@@H](CCSC)C(=O)N[C@@H](CCC(=O)O)C(=O)N[C@@H](CCCNC(=N)N)C(=O)N[C@H](C(=O)N[C@@H](CCC(=O)O)C(=O)N[C@@H](Cc1c[nH]c2ccccc12)C(=O)N[C@@H](CC(C)C)C(=O)N[C@@H](CCCNC(=N)N)C(=O)N[C@@H](CCCCN)C(=O)N[C@@H](CCCCN)C(=O)N[C@@H](CC(C)C)C(=O)N[C@@H](CCC(N)=O)C(=O)N[C@@H](CC(=O)O)C(=O)N[C@H](C(=O)N[C@@H](Cc1c[nH]cn1)C(=O)N[C@@H](CC(N)=O)C(=O)N[C@@H](Cc1ccccc1)C(=O)O)C(C)C)C(C)C [bPTH(1-34), reference compound]
Cortical bone calcium (OVX rats, 80 μg/kg/day): no significant increase

AVSEHQLLHDKGKSIQDLRRRELLEKLLEKLHTA-NH2 [Compound 1]
Total Bone Calcium (% increase over OVX) (40 ug/kg/day, 20 d of dosing): 73-109%
Total Bone Calcium (% increase over OVX) [1]: 88-138%
Trabecular Bone Calcium (% increase over OVX) [1]: 101-128%
